From PubChem BioAssay AID493014 (National Center for Advancing Translational Sciences (NCATS), 2011)
The other results are listed elsewhere or left out. Further columns of the screen follow, without active or inactive calls. Most of these compounds were active or inconclusive in the main read-out, so they are no random draw. Words in brackets tell the shape of the fitted curve; partial curves, single points and poor fits give uncertain potencies.

Assay: qHTS Assay to Find Inhibitors of Chronic Active B-Cell Receptor Signaling
Settings: ABC-DLBCL IkBa-CBG/CBR reporter, luminescence ratio (green luciferase fused to IkBa over red control in TMD8 lymphoma cells), 4 h
How it was run: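 Compounds up to 46 uM were incubated four hours with TMD8 cells whose green CBG68 luciferase is fused to IkappaBalpha; red CBR luminescence normalised the signal, and concentration-effect curves were fitted to fusion, red and ratio data.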

[1] = measured here: CBR red luminescence, cell number
[2] = measured here: IkBa-CBG green luminescence

| SMILES | AC50 [1] | AC50 [2] |
| --- | --- | --- |
| CNC(=S)N=Nc1c(O)[nH]c2ccccc12 | 29.1 µM [rising, single point] |  |
| O=C(NNC(=O)c1cccs1)c1ccc(Cl)cc1 | 18.4 µM [falling, partial curve] |  |
| Clc1cccc(CN2CCN(c3ncccn3)CC2)c1Cl | 12.6 µM [rising, partial curve] |  |
| CCOc1c(Nc2cccc(Cl)c2)c(=O)c1=O | 35.5 µM [falling, single point] |  |
| Cc1ccc(C(=O)Nc2nccc(-c3cccs3)n2)cc1 | 12.6 µM [falling, partial curve] |  |
| O=C(/C=C/c1ccco1)OCC(=O)c1cccc([N+](=O)[O-])c1 | 14.1 µM [rising, partial curve, poor fit] |  |
| C=CCn1c(SCC(=O)Nc2nc3ccccc3s2)nnc1-c1ccccc1O | 18.4 µM [falling, single point] |  |
| C=CCSc1ncccc1C(=O)NCc1ccc(C)cc1 | 7.94 µM [falling, partial curve, poor fit] |  |
| O=C(Nc1ccc(Br)cc1)c1cc(S(=O)(=O)NC2CCCC2)ccc1F | 3.98 µM [falling, full curve] |  |
| CC(=O)c1cccc(NC(=O)C(OC(=O)c2ccccc2NS(=O)(=O)c2cccs2)c2ccccc2)c1 (stereo unspecified) | 3.66 µM [rising, full curve, poor fit] |  |
| CNC(=S)N/N=C/c1cc(C)n(-c2ccc(Cl)c(Cl)c2)c1C |  | 18.4 µM [falling, single point] |
| CC(C)(C)c1ccc(C(=O)c2c[nH]c(C(=O)NCc3ccco3)c2)cc1 | 17.8 µM [rising, partial curve] |  |
| Cc1cccc(NC(=O)c2ccc3c(c2)OCCO3)c1C | 11.2 µM [falling, partial curve, poor fit] |  |
| CCCCCC(=O)Nc1cc(N(C)C)nc2ccccc12 | 6.51 µM [rising, single point] |  |
| CCCc1cc(=O)n2[nH]c(NCc3ccccc3Cl)nc2n1 | 20 µM [falling, partial curve] |  |
| COc1ccc(C(=O)Nc2ccc3c(c2)n(C)c(=O)n3C)cc1OC |  | 25.1 µM [falling, partial curve, poor fit] |
| Cc1ccc(N2C(=O)c3cccc4c(N)ccc(c34)C2=O)c2cccnc12 | 3.98 µM [rising, partial curve] | 1.58 µM [falling, partial curve] |
| O=C1Nc2ccccc2C(O)(C(=O)NCc2ccco2)N1c1ccc(Cl)cc1 (stereo unspecified) | 2.06 µM [rising, partial curve, poor fit] |  |
| COc1ccc(-c2ccc(CCC(=O)O)n2NC(=O)c2ccc(O)cc2)cc1 | 22.4 µM [falling, single point] |  |
| O=C(Nc1nnc(-c2ccccc2Cl)o1)c1nc2ccccc2s1 | 3.66 µM [falling, partial curve] |  |
| CCCOc1ccc(CN(CCO)CCO)cc1C(=O)OC | 6.31 µM [falling, single point] |  |

Copied from the list:
In AC50 [1], CCCOc1ccc(CN(CCO)CCO)cc1C(=O)OC shows 6.31 µM [falling, single point]
In AC50 [1], CCOc1c(Nc2cccc(Cl)c2)c(=O)c1=O shows 35.5 µM [falling, single point]
In AC50 [1], O=C(Nc1ccc(Br)cc1)c1cc(S(=O)(=O)NC2CCCC2)ccc1F shows 3.98 µM [falling, full curve]

Next structures follow.

| SMILES | AC50 [1] | AC50 [2] |
| --- | --- | --- |
| COc1ccc(OC)c(NC(=O)C2CCCN2S(=O)(=O)c2cccc3nsnc23)c1 (stereo unspecified) | 25.1 µM [rising, single point] |  |
| CN(c1ccc(C(=O)N2CCCCCC2)cc1)S(=O)(=O)c1ccc(Cl)cc1 | 10 µM [falling, partial curve, poor fit] |  |
| CCOC(=O)CSc1nnc(CNC(=O)c2cccc(C)c2)n1C | 31.6 µM [rising, single point] |  |
| COC(=O)c1c(NC(=O)COC(=O)Cn2cnc3ccccc32)sc2c1CCCC2 | 14.6 µM [rising, partial curve] |  |
| N=c1n(Cc2ccccc2)c2ccccc2n1Cc1ccccc1 | 29.1 µM [falling, single point] |  |
| O=C1c2ccccc2C(=O)N1c1ccc(Cl)cn1 | 16.4 µM [rising, partial curve, poor fit] |  |
| COc1ccc(CNc2ccc(C)c(C)c2)cc1 | 35.5 µM [rising, single point] |  |
| CCOC(=O)c1sc2nc(C)nc(NCCc3ccccn3)c2c1C | 15.8 µM [falling, partial curve, poor fit] |  |
| CCCn1c(=O)c(C(=O)NCc2ccco2)c(O)c2ccccc21 | 5.62 µM [rising, single point] |  |
| CC(C)CCNC(=O)C1CCN(S(=O)(=O)c2ccc3c(c2)CCC(=O)N3)CC1 | 25.9 µM [rising, partial curve, poor fit] |  |
| C=CC[C@@H](CC(=O)N(CCO)Cc1ccccc1)C(=O)N[C@H](COC(=O)[C@@H](CC=C)Cc1ccc(F)cc1)Cc1c[nH]c2ccccc12 | 9.2 µM [falling, partial curve] |  |
| Cc1cc(C)n2nc(SCc3cc(=O)oc4cc(O)ccc34)nc2n1 | 20.6 µM [rising, partial curve, poor fit] |  |
| Cn1c(SCC(=O)Nc2nc(C(C)(C)C)cs2)nnc1C1CC1 | 14.1 µM [rising, single point] |  |
| Cc1ccc(N(CCC#N)C(=O)CCl)cc1C | 20.6 µM [falling, single point] |  |
| Cc1ccc(S(=O)(=O)Nc2ccccc2N(C)S(=O)(=O)c2ccc(C)cc2)cc1 | 5.8 µM [falling, single point] |  |
| OCCN(CC(O)Cn1ccc2ccccc21)CC(O)Cn1ccc2ccccc21 (stereo unspecified) | 10 µM [falling, partial curve, poor fit] |  |
| COc1ccc(NC(=O)c2sc(NC(=O)C3CC3)nc2C)cc1 | 8.91 µM [falling, partial curve, poor fit] |  |
| CCc1cc(C(=O)COc2ccccc2F)c(O)cc1O | 3.66 µM [rising, full curve, poor fit] |  |
| O=C(Nc1ccc2c(c1)OCO2)N1CCN(S(=O)(=O)c2ccc(Cl)cc2)CC1 | 6.51 µM [falling, single point] |  |
| Cc1ccc(S(=O)(=O)Oc2ccccc2/C=N/Nc2ccc(C(=O)O)cc2)cc1 | 1.78 µM [falling, partial curve] |  |
| CC1=C(C(=O)Nc2cccnc2)C(c2ccccn2)n2nnnc2N1 (stereo unspecified) | 35.5 µM [falling, single point] |  |

| SMILES | AC50 [1] | AC50 [2] |
| --- | --- | --- |
| COc1ccc(OCC(O)Cn2c(=N)n(CCN3CCCCC3)c3ccccc32)cc1 (stereo unspecified) | 35.5 µM [falling, single point] |  |
| O=[N+]([O-])c1c(Nc2ccccn2)cc(Cl)c2nonc12 | 35.5 µM [rising, single point] |  |
| O=C(OCn1nnc2ccccc2c1=O)C1COc2ccccc2O1 (stereo unspecified) | 4.11 µM [rising, single point] |  |
| Cc1ccc(-c2cc(-c3ccccc3)c(C#N)c(N)n2)o1 | 11.6 µM [falling, partial curve] | 13 µM [rising, partial curve, poor fit] |
| O=C(CCC1N=C2c3ccccc3N=C(SCc3ccc(Cl)cc3)N2C1=O)NCc1cccs1 (stereo unspecified) | 15.8 µM [falling, single point] |  |
| COCC(C)n1c(C)cc(C(=O)COC(=O)C2=NN(c3ccccc3)C(=O)CC2)c1C (stereo unspecified) | 35.5 µM [rising, single point] |  |
| Cc1nnc(SCC(=O)N2N=C(c3ccc(Cl)cc3)CC2c2ccco2)[nH]c1=O (stereo unspecified) | 2.24 µM [falling, partial curve, poor fit] |  |
| CCSc1nnc(NC(=O)CSc2nnc(CNC(=O)c3cc(OC)c(OC)c(OC)c3)o2)s1 | 29.1 µM [rising, single point] |  |
| COc1ccc(OC)c(N(CC(=O)Nc2ccc3c(c2)OCO3)S(=O)(=O)c2ccccc2)c1 | 29.1 µM [falling, single point] |  |
| CN(C)c1cccc(C(=O)NNC(=O)C23CC4CC(CC(C4)C2)C3)c1 | 0.326 µM [rising, full curve, poor fit] |  |
| COc1ccc(/C=C2/S/C(=N/N=C3\CC4CCC3(C)C4(C)C)NC2=O)cc1 (stereo unspecified) | 1.58 µM [rising, full curve, poor fit] |  |
| COc1ccc(Oc2cc(C)c3cccc(C)c3n2)cc1 | 29.1 µM [rising, single point] |  |
| COC(=O)CCN(C(=O)c1cc(OC)c(OC)c(OC)c1)c1ccccn1 | 29.1 µM [rising, single point] |  |
| Cc1cccc(NC(=S)NCCSc2ccc(Cl)cc2)c1 | 2 µM [rising, partial curve, poor fit] |  |
| COc1ccc(OC)c(C(=O)c2coc3ccc(OCC(=O)O)cc23)c1 | 32.6 µM [falling, single point] |  |
| S=c1[nH]nc(Cc2cccc3ccccc23)o1 | 6.51 µM [rising, partial curve, poor fit] |  |
| Cc1cc(C(=O)OCC(=O)c2cccc([N+](=O)[O-])c2)c2cccc(C)c2n1 | 0.282 µM [falling, partial curve, poor fit] |  |
| O=C(c1ccco1)N1CCn2cccc2C1c1ccccc1 (stereo unspecified) |  | 6.31 µM [rising, full curve, poor fit] |
| O=C1C=C(c2ccc(OC(F)(F)F)cc2)C[C@@H](c2ccc(Cl)cc2)C1 | 18.4 µM [rising, single point] |  |
| CC(C)Nc1nc(Cl)nc(N(C#N)CN2C(=O)c3ccccc3C2=O)n1 | 29.1 µM [falling, single point] | 29.1 µM [rising, partial curve, poor fit] |
| Cc1ccc2sc(N(CCCN(C)C)C(=O)c3ccc(Br)s3)nc2c1C | 8.91 µM [falling, partial curve, poor fit] |  |
